# Data published in patent publication US10082509B2 (priority 2013, dated 2018).
# At least one structure is not confirmed: it was looked up by name or label, or the drawing left a doubt.
# System: Legionella pneumophila
# Format: cell-based
# Settings: four L. pneumophila strains of Table 2 (serogroup 1 Philadelphia 2 and Paris, serogroups 3 and 6)
smiles,measurement,value
"[N-]=[N+]=NCC(=O)N[C@H]1[C@H](O)[C@H](NC(=O)CN=[N+]=[N-])C(O)O[C@@H]1CO (stereo partly drawn) [Ib-1, 2,4-diazidoacetamido-2,4-dideoxy-D-mannose]",membrane fluorescence / metabolic incorporation of the azido chemical reporter into LPS,highly distinctive fluorescence on their membrane
